# Results: the supplement of paper PMC10849652
# Amino acid sequences for entries named in this document (tags omitted). A change or cut given only in a name is not applied to a line headed by its entry.
# UniProt Q92902: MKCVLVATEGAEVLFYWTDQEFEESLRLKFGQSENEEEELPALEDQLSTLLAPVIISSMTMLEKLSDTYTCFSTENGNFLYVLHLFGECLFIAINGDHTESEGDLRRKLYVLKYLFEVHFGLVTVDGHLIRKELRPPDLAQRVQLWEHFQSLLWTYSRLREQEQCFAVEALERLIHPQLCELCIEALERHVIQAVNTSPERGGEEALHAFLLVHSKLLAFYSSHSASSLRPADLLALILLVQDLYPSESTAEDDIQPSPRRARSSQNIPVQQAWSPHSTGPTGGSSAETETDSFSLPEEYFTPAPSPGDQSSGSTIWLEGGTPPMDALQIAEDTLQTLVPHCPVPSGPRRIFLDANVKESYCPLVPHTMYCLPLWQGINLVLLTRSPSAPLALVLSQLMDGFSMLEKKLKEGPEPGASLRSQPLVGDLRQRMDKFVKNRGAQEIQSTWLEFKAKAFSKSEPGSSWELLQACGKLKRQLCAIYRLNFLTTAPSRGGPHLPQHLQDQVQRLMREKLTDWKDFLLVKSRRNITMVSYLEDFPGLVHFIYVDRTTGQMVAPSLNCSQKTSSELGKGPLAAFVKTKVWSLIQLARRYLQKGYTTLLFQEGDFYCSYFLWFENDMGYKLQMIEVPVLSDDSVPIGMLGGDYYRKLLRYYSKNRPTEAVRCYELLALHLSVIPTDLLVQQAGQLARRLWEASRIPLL
# UniProt O14979: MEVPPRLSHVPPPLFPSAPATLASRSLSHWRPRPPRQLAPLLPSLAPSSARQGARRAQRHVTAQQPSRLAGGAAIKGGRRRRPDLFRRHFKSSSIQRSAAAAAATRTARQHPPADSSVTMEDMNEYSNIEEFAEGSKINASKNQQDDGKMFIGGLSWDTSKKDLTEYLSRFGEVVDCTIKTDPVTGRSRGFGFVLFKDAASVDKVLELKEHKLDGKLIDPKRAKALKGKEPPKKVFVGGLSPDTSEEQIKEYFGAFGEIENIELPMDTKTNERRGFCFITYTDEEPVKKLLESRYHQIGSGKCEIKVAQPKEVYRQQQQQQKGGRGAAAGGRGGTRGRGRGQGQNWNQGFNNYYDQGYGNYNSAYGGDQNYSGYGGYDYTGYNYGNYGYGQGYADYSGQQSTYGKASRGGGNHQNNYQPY
# UniProt H0YH80: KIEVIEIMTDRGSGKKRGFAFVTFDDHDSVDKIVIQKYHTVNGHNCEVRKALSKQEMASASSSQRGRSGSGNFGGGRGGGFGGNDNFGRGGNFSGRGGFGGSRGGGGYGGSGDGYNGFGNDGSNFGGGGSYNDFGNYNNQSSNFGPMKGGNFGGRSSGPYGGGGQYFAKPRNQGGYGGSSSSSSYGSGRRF
# UniProt Q8NCD3, whole entry, looked up: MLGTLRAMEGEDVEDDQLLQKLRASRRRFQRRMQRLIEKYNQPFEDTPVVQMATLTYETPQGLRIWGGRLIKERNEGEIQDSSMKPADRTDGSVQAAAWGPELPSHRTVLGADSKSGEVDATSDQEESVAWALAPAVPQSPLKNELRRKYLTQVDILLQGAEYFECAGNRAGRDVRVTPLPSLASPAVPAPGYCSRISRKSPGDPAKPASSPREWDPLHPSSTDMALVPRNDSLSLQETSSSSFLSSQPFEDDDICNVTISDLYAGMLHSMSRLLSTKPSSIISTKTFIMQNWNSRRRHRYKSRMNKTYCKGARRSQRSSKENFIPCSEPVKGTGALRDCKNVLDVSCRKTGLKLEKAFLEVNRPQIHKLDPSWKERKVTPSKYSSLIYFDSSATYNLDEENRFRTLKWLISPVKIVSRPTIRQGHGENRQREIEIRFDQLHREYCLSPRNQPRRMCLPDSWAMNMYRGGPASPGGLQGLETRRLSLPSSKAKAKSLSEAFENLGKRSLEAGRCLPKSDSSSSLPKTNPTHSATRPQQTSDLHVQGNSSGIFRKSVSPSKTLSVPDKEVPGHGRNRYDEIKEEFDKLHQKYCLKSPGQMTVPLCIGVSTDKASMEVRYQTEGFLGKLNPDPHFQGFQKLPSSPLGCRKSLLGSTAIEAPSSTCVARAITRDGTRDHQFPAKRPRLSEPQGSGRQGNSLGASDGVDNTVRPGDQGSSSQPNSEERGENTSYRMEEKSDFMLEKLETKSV
# UniProt Q9BYK8: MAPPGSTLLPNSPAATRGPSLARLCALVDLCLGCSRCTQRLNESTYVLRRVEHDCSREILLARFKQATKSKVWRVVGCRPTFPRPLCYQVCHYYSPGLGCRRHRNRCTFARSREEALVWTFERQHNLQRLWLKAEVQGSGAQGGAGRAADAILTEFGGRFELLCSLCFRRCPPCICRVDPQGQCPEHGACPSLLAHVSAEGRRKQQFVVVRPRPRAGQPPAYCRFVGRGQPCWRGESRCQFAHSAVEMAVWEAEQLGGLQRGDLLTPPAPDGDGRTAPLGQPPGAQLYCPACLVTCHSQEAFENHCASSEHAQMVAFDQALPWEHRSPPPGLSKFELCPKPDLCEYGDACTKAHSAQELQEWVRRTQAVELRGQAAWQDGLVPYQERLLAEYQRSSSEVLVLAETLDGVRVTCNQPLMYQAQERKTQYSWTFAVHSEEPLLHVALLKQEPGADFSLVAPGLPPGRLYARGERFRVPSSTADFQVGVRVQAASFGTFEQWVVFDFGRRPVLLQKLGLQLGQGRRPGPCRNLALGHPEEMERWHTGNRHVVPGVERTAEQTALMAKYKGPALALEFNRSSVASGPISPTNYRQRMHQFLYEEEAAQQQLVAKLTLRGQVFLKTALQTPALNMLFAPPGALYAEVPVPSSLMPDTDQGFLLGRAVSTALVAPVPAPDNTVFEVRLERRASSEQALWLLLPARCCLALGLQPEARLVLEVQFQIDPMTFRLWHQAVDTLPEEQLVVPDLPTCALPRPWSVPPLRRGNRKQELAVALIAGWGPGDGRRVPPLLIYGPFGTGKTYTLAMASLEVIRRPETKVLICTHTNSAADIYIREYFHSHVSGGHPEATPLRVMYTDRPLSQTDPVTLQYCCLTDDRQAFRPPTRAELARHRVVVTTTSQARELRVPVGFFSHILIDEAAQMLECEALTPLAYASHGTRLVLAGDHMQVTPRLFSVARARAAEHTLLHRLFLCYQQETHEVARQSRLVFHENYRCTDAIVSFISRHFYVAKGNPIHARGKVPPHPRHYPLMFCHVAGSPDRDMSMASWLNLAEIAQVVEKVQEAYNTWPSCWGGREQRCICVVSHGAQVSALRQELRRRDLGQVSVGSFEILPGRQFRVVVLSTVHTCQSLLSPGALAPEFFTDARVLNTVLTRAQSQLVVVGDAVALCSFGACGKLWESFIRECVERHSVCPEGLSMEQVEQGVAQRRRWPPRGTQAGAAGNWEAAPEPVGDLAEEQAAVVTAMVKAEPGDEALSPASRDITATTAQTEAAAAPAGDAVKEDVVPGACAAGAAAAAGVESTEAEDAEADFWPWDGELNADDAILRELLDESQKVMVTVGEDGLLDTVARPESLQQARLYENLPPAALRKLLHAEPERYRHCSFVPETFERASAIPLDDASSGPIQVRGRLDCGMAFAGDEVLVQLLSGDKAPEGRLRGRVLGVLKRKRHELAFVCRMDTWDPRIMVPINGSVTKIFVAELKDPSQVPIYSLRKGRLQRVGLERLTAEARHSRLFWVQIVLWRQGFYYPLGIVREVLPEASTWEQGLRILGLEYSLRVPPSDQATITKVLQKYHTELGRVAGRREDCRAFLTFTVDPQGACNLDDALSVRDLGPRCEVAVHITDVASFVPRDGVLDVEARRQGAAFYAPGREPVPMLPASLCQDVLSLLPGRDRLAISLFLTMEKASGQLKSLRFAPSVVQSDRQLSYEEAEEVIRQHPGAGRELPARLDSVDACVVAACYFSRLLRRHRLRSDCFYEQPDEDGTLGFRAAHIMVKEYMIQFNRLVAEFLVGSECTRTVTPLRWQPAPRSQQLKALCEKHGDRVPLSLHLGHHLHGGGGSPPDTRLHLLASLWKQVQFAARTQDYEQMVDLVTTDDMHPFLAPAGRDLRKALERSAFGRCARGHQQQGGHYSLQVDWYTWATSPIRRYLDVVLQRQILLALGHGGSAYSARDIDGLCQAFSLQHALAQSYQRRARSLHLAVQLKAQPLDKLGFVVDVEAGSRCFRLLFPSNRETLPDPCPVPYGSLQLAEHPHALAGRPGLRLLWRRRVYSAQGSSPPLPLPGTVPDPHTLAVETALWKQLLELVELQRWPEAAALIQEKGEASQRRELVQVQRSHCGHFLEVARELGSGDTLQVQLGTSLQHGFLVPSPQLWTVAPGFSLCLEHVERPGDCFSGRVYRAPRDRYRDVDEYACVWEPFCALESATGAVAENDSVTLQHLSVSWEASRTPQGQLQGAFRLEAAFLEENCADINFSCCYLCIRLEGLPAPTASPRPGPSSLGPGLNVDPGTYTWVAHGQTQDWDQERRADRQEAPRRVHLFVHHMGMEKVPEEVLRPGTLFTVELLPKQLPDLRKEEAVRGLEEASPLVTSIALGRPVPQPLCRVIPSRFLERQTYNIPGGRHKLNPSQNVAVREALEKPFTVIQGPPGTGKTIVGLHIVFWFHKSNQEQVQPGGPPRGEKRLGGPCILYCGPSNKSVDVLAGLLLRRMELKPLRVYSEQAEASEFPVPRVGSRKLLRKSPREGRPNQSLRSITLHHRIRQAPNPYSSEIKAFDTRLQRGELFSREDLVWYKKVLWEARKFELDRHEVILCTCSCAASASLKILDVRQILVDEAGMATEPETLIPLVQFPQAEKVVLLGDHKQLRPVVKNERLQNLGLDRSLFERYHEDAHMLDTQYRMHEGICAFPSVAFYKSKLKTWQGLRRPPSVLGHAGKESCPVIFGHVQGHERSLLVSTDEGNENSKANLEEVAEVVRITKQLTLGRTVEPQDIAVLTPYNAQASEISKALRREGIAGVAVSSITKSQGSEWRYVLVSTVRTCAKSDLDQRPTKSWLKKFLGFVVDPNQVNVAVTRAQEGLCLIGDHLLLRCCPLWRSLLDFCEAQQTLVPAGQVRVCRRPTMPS
# UniProt Q8NBQ5: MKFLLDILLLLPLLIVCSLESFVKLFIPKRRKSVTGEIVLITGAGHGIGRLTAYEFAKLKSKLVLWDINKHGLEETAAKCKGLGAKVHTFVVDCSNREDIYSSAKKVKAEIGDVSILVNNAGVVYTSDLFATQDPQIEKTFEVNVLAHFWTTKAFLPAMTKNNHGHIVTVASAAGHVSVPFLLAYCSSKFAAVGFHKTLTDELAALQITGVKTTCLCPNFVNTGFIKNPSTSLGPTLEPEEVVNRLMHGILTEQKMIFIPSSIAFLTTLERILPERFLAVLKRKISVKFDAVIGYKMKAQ
# UniProt P31943: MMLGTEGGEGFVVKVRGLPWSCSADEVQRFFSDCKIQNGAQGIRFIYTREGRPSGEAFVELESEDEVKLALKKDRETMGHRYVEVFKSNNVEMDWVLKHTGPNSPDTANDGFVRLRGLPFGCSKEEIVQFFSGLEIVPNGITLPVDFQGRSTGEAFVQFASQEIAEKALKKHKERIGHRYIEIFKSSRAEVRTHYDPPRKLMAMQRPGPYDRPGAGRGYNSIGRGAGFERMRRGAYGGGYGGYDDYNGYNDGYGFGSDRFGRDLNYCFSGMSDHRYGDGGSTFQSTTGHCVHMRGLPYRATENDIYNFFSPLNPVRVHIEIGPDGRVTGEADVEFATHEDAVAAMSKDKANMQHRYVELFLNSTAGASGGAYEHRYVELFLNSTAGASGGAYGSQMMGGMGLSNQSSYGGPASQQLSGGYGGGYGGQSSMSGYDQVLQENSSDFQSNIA
# UniProt O15347: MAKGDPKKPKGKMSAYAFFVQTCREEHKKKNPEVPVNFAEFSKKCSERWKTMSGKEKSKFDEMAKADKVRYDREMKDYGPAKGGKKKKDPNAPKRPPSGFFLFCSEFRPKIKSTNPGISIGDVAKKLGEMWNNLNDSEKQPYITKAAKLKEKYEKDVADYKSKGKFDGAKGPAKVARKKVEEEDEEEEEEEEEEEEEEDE
# UniProt O43390: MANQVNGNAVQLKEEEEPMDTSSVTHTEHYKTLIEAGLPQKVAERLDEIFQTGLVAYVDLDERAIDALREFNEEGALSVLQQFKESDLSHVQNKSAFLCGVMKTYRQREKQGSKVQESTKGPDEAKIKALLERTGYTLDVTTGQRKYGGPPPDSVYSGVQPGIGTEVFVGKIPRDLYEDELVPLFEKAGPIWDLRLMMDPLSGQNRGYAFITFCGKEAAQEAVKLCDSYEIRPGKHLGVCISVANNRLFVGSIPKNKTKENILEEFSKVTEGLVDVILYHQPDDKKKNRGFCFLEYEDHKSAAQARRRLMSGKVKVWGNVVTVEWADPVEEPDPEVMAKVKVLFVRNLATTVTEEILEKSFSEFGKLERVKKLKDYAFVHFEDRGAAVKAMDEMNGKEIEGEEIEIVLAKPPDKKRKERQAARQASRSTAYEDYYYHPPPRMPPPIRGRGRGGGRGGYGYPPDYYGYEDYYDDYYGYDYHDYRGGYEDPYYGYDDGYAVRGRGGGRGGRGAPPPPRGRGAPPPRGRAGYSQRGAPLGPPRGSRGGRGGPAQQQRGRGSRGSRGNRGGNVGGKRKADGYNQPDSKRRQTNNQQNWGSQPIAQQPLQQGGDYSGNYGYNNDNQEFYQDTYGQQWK
# The other results are listed elsewhere or left out.
# Compound: NCC(=O)Nc1ccc(-n2nc(C(F)(F)F)cc2-c2ccc3c(ccc4ccccc43)c2)cc1
# Assay: log2 fold change, soluble protein after heating vs DMSO (PISA); higher = thermal stabilisation; K562 lysate, 10 uM; active = over 0.2 and 3.5 SD of the protein, either way, in both replicates (recomputed)
# Summary of the method: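 Quantification was by TMTpro 16plex LC-MS/MS with equalised channel sums, applied to the supernatant after 21,000xg for 90 min. Samples were crude K562 extract at 1 mg/mL protein in PBS pH 7.4 with 1 mM MgCl2, treated with 10 μM compound for 30 min, heated for 3 min across 48°C-58°C, pooled and brought to 0.5% NP-40 at 4°C. Values are log-two fold changes in thermal stability relative to solvent controls, from duplicates.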
row,Target,log2 fold change
1,HECTD1 (UniProt Q9ULT8),inactive: 0.019
2,HSP90AA4P (UniProt Q58FG1),inactive: 0.026
3,HPS1 (UniProt Q92902),inactive: -0.054
4,HSP90AB3P (UniProt Q58FF7),inactive: 0.011
5,HPS4 isoform 4 (UniProt Q9NQG7),inactive: 0.029
6,HSP90AB4P (UniProt Q58FF6),inactive: 0.056
7,HP1BP3 (UniProt Q5SSJ5),inactive: 0.019
8,HSD17B8 (UniProt Q92506),inactive: -0.071
9,HNRNPDL (UniProt O14979),inactive: -0.032
10,HS1BP3 (UniProt Q53T59),inactive: 0.03
11,HMGN4 (UniProt O00479),inactive: -0.095
12,HMCN1 (UniProt Q96RW7),inactive: -0.015
13,HNRNPA1 (UniProt H0YH80),inactive: 0.004
14,HPF1 (UniProt Q9NWY4),inactive: -0.02
15,HHEX (UniProt Q03014),inactive: -0.001
16,HJURP (UniProt Q8NCD3),inactive: 0.105

row,Target,log2 fold change
1,HNRNPM (UniProt M0R019),inactive: -0.198
2,HELZ2 (UniProt Q9BYK8),inactive: -0.115
3,HIP1 (UniProt O00291),inactive: 0.064
4,HNRNPK isoform 3 (UniProt P61978),inactive: 0.051
5,HSD17B11 (UniProt Q8NBQ5),inactive: -0.031
6,HMGN1 (UniProt P05114),inactive: -0.013
7,HOXB9 (UniProt P17482),inactive: -0.087
8,HMGCS1 (UniProt Q01581),inactive: 0.018
9,HNRNPH1 (UniProt P31943),inactive: -0.007
10,HMGB3 (UniProt O15347),inactive: -0.03
11,HNRNPR (UniProt O43390),inactive: -0.079
12,HEXA (UniProt P06865),inactive: 0.017
13,HMGB1 (UniProt P09429),inactive: -0.024
14,HEMGN (UniProt Q9BXL5),inactive: -0.003
15,HSPA1A (UniProt P0DMV8),inactive: -0.008
16,HPS5 (UniProt Q9UPZ3),inactive: -0.049
